Among the data in patent US20160340429A1 (KADMON, published 2016) are binding values, retold here.

Sequences of proteins named here, by UniProt entry; tags and fusion partners are left off. A change or cut given only in a name is not applied to a line headed by its entry.
UniProt Q9NZQ7: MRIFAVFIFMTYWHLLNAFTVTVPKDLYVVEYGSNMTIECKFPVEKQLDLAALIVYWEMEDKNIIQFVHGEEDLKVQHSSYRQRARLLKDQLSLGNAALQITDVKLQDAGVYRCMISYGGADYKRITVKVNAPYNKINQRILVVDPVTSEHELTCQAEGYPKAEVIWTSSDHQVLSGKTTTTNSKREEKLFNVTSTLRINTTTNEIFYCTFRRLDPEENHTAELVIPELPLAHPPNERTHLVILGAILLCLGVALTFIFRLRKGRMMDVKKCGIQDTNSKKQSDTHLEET

In assay [1] the target is recombinant human PDL1-Fc (PDL1 ECD and human Fc fusion protein, Q9NZQ7) (human) (UniProt Q9NZQ7). As to the kind of experiment: solid-phase ELISA. Background: ELISA stands for enzyme-linked immunosorbent assay.
For assay [2], the target named is human PD-L1 on cells (PDLI-293 / HEK-293 cells expressing PD-L1, MDA-MB-231 cells, activated CD4 cells, monocyte-derived dendritic cells) (human) (UniProt Q9NZQ7). As to the kind of experiment: binding to HEK-293 cells expressing PD-L1.

These are yes or no findings as the source states them, for the method shown. Some entries that bind do so weakly or less than the wild type.

B1: tctR3κA8 (antibody, V domains shown)
VH: EVQLLESGGGLVQPGGSLRLSCAASGFTFSWYIMAWVRQAPGKGLEWVSYISSSGGFTAYADSVKGRFTISRDNSKNTLYLQMNSLRAEDTAVYYCARIGGTDVFDIWGQGTLVTVSS
VL: DIQMTQSPSTLSASVGDRVTITCRASQSISSWLAWYQQKPGKAPKLLIYKASSLESGVPSRFSGSGSGTDFTLTITSLLPEDFATYYCQQSYSSPWTFGQGTKVEVK
In the case of B1, the binding result in assay [1] and in assay [2] was “binds” each time.

B2: sR3λD7 (antibody, V domains shown)
VH: EVQLLESGGGLVQPGGSLRLSCAASGFTFSKYRMAWVRQAPGKGLEWVSYIYPSGGFTFYADSVKGRFTISRDNSKNTLYLQMNSLRAEDTAVYYCAKDIGQWLFVFDYWGQGTLVTVSS
VL: QSELTQPASVSGSPGQSITISCTGTSSDVGGYNYVSWYQQHPGKAPKLMIYDVSNRPSGVSNRFSGSKSGNTASLTISGLQAEDEADYYCSSYTNTITVVFGGGTKLTVLG
Turning to B2, the binding result in assay [1] and in assay [2] was “binds” throughout.

B3: tccR3λF8 (antibody, V domains shown)
VH: EVQLLESGGGLVQPGGSLRLSCAASGFTFSIYSMNWVRQAPGKGLEWVSVIYPSGGFTHYADSVKGRFTISRDNSKNTLYLQMNSLRAEDTAVYYCARGRKTTVTDFDYWGQGTLVTVSS
VL: QSALTQPASVSGSPGQSITISCTGTSSDVGGYNYVSWYQQHPGKAPKVMIYEVSHRPSGVSNRFSGSKSGNTASLTISGLQAEDEADYYCSSYTSGSTRVFGGGTKVTVLG
For B3, the binding entry in assay [1] and in assay [2] was “binds” in each case.

B4: tccR3λH4 (antibody, V domains shown)
VH: EVQLLESGGGLVQPGGSLRLSCAASGFTFSAYRMVWVRQAPGKGLEWVSRIYPSGGFTFYADSVKGRFTISRDNSKNTLYLQMNSLRAEDTAVYYCARALGPLSPLDSWGQGTLVTVSS
VL: QSELTQPASVSGSPGQSITISCTGTSSDVGGYNYVSWYQQHPGKAPKLMIYEVSNRPSGVPDRFSGSKSGNTASLTISGLQAEDEGDYYCSSYRSGNTLVFGGGTKVTVLG
Consider B4, for which the binding entry in assay [1] and in assay [2] was “binds” each time.

B5: tccR3κD9 (antibody, V domains shown)
VH: EVQLLESGGGLVQPGGSLRLSCAASGFTFSHYPMSWVRQAPGKGLEWVSRIWSSGGNTYYADSVKGRFTISRDNSKNTLYLQMNSLRAEDTAVYYCARGGYFDWLYPHDYWGQGTLVTVSS
VL: DIQMTQSPSSVSASVGDRVTITCRASQGISSWLSWYQQKPGAAPKLLIYAASSLQSGVPARFSGSGSGREFTLTISNLQPEDFATYYCQQGNSFPPTFGQGTKVDIK
Turning to B5, the binding result in assay [1] and in assay [2] was “binds” throughout.

B6: tccR3κA11 (antibody, V domains shown)
VH: EVQLLESGGGLVQPGGSLRLSCAASGFTFSWYLMKWVRQAPGKGLEWVSYIGSSGGFTAYADSVKGRFTISRDNSKNTLYLQMNSLRAEDTAMYYCAREDDFGAMDVWGQGTTVTVSS
VL: DIQMTQSPSSLSASVGDRVTITCRASQTVSKYFNWFQQKPGEAPKLLIYATSTLQSGVPSRFSGSGYGTEFTLTISSLQPEDFATYYCQQSYTTPWTFGQGTKVEIK
Take B6: the binding entry in assay [1] and in assay [2] was “binds” each time.

B7: tccR3κB7 (antibody, V domains shown)
VH: EVQLLESGGGLVQPGGSLRLSCAASGFTFSSYQMGWVRQAPGKGLEWVSWIVPSGGFTHYADSVKGRFTISRDNSKNTLYLQMNSLRAEDTAVYYCARDAGYRSGYYYYYGMDVWGQGTTVTVSS
VL: DIQMTQSPSSLSASVGDRVTITCRASQSIASYLNWYQQKPGKAPKLLIYGASSLQSGVPSRFSGSGSGTDFTLTIRSLQPEDIATYYCQQSYGISYTFGQGTKLEIK
For the molecule B7, the binding result in assay [1] and in assay [2] was “binds” each time.

B8: tccR3κA4 (antibody, V domains shown)
VH: EVQLLESGGGLVQPGGSLRLSCAASGFTFSPYDMGWVRQAPGKGLEWVSSIYSSGGWTKYADSVKGRFTISRDNSKNTLYLQMNSLRAEDTAVYYCARDNWNDGAFDVWGQGTMVTVSS
VL: DIQMTQSPSTLSASVGDRVTITCRASQSISSWLAWYQQKPGKAPKLLIFAASRLQTGVPSRFSGSGSGTDFTLTISSLQPEDSATYYCQQAKTFPLTFGGGTRVEIK
B8: the binding result in assay [1] and in assay [2] was “binds” in each case.

B9: tccR3κF8 (antibody, V domains shown)
VH: EVQLLESGGGLVQPGGSLRLSCAASGFTFSFYDMSWVRQAPGKGLEWVSSIVPSGGWTFYADSVKGRFTISRDNSKNTLYLQMNSLRAEDTAVYYCARDSWNDGASDIWGQGTMVTVSS
VL: DIQMTQSPSSVSASVGDRVTITCRASQGISSWLAWYQQKPGKAPKLLIYAASSLQSGVPSRFSGSGSGTDFTLTINSLQPEDFATYYCQQANSFPFTFGPGTKVDFK
As to B9, the binding entry in assay [1] and in assay [2] was “binds” each time.
